PubChem BioAssay AID1259308, NCATS, 2017
Aim: 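Knock-downs that increase output of a recombinant reporter protein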 (primary screen). System: human HEK293 embryonic kidney cells stably expressing firefly luciferase (HEK-CMV-Luc2-Hygro). Knock-down reagent: single siRNA against human genes, 0.8 pmol siRNA per well. Duration: 72 h. Measurement: 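Reporter luminescence and viable-cell signal on separate replicate plates, given as percent of non-targeting control and median/MAD z-scores, plus per-cell luciferase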. Reading the numbers: total luciferase, z-score: higher = more reporter protein produced. Hit rule: 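Active when the median/MAD z-score for overall luciferase is greater than 3; a gene was taken forward for validation with new siRNAs if at least two of its three siRNAs passed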. Meaning of the calls: active = raised luciferase; inactive = no rise.
The deposit covers about 59,000 reagents; shown is an unselected part. About 1,510 of all reagents (2.6%) were called active. 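Calls use total luciferase alone and ignore viability, so some active siRNAs may act by altering cell number.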 Unmarked entries are inactive. Reagents against one gene are numbered here. Not all columns of the deposit are shown. No sequences are given here.

Against GRSF1 (G-rich RNA sequence binding factor 1) #1 the deposit lists total luciferase, z-score 0.944. After knock-down of GRSF1 (G-rich RNA sequence binding factor 1) #2, the screen gave total luciferase, z-score 2.39. With knock-down of GRSF1 (G-rich RNA sequence binding factor 1) #3, the screen gave total luciferase, z-score -1.2. Silencing of GALNT10 (polypeptide N-acetylgalactosaminyltransferase 10) #1 gave: total luciferase, z-score -0.345. With knock-down of GALNT10 (polypeptide N-acetylgalactosaminyltransferase 10) #2 the results were total luciferase, z-score -0.53. GALNT10 (polypeptide N-acetylgalactosaminyltransferase 10) #3 gave total luciferase, z-score 0.657.

After knock-down of LXN (latexin) #1, the record shows total luciferase, z-score 1.52. For LXN (latexin) #2 the deposit lists total luciferase, z-score 3.33 (active). For LXN (latexin) #3, the values are total luciferase, z-score -0.0601. ELOCP3 (elongin C pseudogene 3) #1 showed total luciferase, z-score 1.47. Depletion of ELOCP3 (elongin C pseudogene 3) #2 resulted in: total luciferase, z-score 0.821. Silencing of ELOCP3 (elongin C pseudogene 3) #3 resulted in: total luciferase, z-score 0.76.

After knock-down of PABIR2 (PABIR family member 2) #1, the record shows total luciferase, z-score 6.35 (active). With knock-down of PABIR2 (PABIR family member 2) #2, the record shows total luciferase, z-score -0.625. After knock-down of PABIR2 (PABIR family member 2) #3 the results were total luciferase, z-score 0.628. After knock-down of DNM2 (dynamin 2) #1, the screen gave total luciferase, z-score 0.151. DNM2 (dynamin 2) #2 gave total luciferase, z-score -1.87. Depletion of DNM2 (dynamin 2) #3 came out at: total luciferase, z-score 0.218.

Silencing of NR2C2AP (nuclear receptor 2C2 associated protein) #1 resulted in: total luciferase, z-score 0.535. Depletion of NR2C2AP (nuclear receptor 2C2 associated protein) #2 came out at: total luciferase, z-score 1.31. Knock-down of NR2C2AP (nuclear receptor 2C2 associated protein) #3 resulted in: total luciferase, z-score 1.73. For PTPN11 (protein tyrosine phosphatase non-receptor type 11) #1, the entry reads total luciferase, z-score -1.37. For PTPN11 (protein tyrosine phosphatase non-receptor type 11) #2, the values are total luciferase, z-score -0.879. After knock-down of PTPN11 (protein tyrosine phosphatase non-receptor type 11) #3, the record shows total luciferase, z-score 0.583.

With knock-down of HOXD4 (homeobox D4) #1, the screen gave total luciferase, z-score -1.51. HOXD4 (homeobox D4) #2 gave total luciferase, z-score 1.8. Against HOXD4 (homeobox D4) #3, the entry reads total luciferase, z-score 0.221. LOC728805 (retired record) #1 gave total luciferase, z-score -0.212. With knock-down of LOC728805 (retired record) #2 the results were total luciferase, z-score 3.43 (active). With knock-down of LOC728805 (retired record) #3, the screen gave total luciferase, z-score -1.51.

After knock-down of SEPTIN5 (septin 5) #1, the screen gave total luciferase, z-score 0.0208. With knock-down of SEPTIN5 (septin 5) #2, the screen gave total luciferase, z-score 0.339. SEPTIN5 (septin 5) #3 gave total luciferase, z-score -1.44.

Ordered by “total luciferase, z-score” (lowest first): some entries from above.
PABIR2 (PABIR family member 2) #2 | total luciferase, z-score = -0.625
PABIR2 (PABIR family member 2) #3 | total luciferase, z-score = 0.628
ELOCP3 (elongin C pseudogene 3) #3 | total luciferase, z-score = 0.76
PABIR2 (PABIR family member 2) #1 | total luciferase, z-score = 6.35 (active)
